# Laboratory results published in the supplement of paper PMC4604168 (melanoma cell lines).
# This is one part of the list. Many values rest on one well or one pass, so single values are uncertain.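 The apoptosis fraction was the count of cleaved-PARP antibody-stained nuclei relative to all DNA-stained nuclei, imaged in 1,536-well plates. Screening doses were set so most cells survived, and baseline and induced cleaved-PARP levels vary greatly across cell lines.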
# Experiments:
# Test in all cases: cleaved PARP positive nuclei fraction relative to DMSO control; melanoma cells; higher = more apoptosis
# Conditions in all cases: library dose: low library concentration; 72 h
# 501Mel = tested on: 501Mel
# A101D = tested on: A101D
# A2058 = tested on: A2058
# A375 = tested on: A375
# C32 = tested on: C32
# CBRC008 = tested on: CBRC008 (line from a melanoma biopsy)
# CBRC013 = tested on: CBRC013 (line from a melanoma biopsy)
# CBRC014 = tested on: CBRC014 (line from a melanoma biopsy)
# CBRC016 = tested on: CBRC016 (line from a melanoma biopsy)
# CBRC017 = tested on: CBRC017 (line from a melanoma biopsy)
# COLO792 = tested on: COLO792
# COLO800 = tested on: COLO800
# COLO829 = tested on: COLO829
# G361 = tested on: G361
# IPC-298 = tested on: IPC-298
# IST-MEL1 = tested on: IST-MEL1
# LB2518-MEL = tested on: LB2518-MEL
# LOXIMVI = tested on: LOXIMVI
# MEL-HO = tested on: MEL-HO
Structure (SMILES),cleaved PARP positive nuclei fraction (501Mel) [%],cleaved PARP positive nuclei fraction (A101D) [%],cleaved PARP positive nuclei fraction (A2058) [%],cleaved PARP positive nuclei fraction (A375) [%],cleaved PARP positive nuclei fraction (C32) [%],cleaved PARP positive nuclei fraction (CBRC008) [%],cleaved PARP positive nuclei fraction (CBRC013) [%],cleaved PARP positive nuclei fraction (CBRC014) [%],cleaved PARP positive nuclei fraction (CBRC016) [%],cleaved PARP positive nuclei fraction (CBRC017) [%],cleaved PARP positive nuclei fraction (COLO792) [%],cleaved PARP positive nuclei fraction (COLO800) [%],cleaved PARP positive nuclei fraction (COLO829) [%],cleaved PARP positive nuclei fraction (G361) [%],cleaved PARP positive nuclei fraction (IPC-298) [%],cleaved PARP positive nuclei fraction (IST-MEL1) [%],cleaved PARP positive nuclei fraction (LB2518-MEL) [%],cleaved PARP positive nuclei fraction (LOXIMVI) [%],cleaved PARP positive nuclei fraction (MEL-HO) [%]
"CS(=O)(=O)CCNCc1ccc(-c2ccc3ncnc(Nc4ccc(OCc5cccc(F)c5)c(Cl)c4)c3c2)o1 [lapatinib] + CN(NC(=O)CC(=O)NN(C)C(=S)c1ccccc1)C(=S)c1ccccc1 [STA4783] (first compound 0.8 µM, partner dose 0.006 µM)",251,202,196,2000,178,1510,131,510,189,228,69.4,45.2,766,179,46.2,177,194,110,146
"CS(=O)(=O)CCNCc1ccc(-c2ccc3ncnc(Nc4ccc(OCc5cccc(F)c5)c(Cl)c4)c3c2)o1 [lapatinib] + NCC(=O)Nc1ccc(-n2nc(C(F)(F)F)cc2-c2ccc3c(ccc4ccccc43)c2)cc1 [OSU03012] (first compound 0.8 µM, partner dose 1 µM)",215,154,149,1900,58.8,182,100,96.5,103,104,241,90.4,132,168,206,120,80.6,44.4,69.7
"C=C(c1ccc(C(=O)O)cc1)c1cc2c(cc1C)C(C)(C)CCC2(C)C [Bexarotene] + O=C(O)c1ccc(-c2c[nH]c3ncc(-c4ccccc4)cc23)cc1C1CCCC1 [GSK650394] (first compound 2 µM, partner dose 0.16 µM)",83.6,70.3,70.5,50.2,72.7,169,91,103,135,123,129,55.6,119,85,169,295,58.5,53.5,167
"CNC(=O)c1cc(Oc2ccc(NC(=O)Nc3ccc(Cl)c(C(F)(F)F)c3)cc2)ccn1 [sorafenib] + C=CCn1c(=O)c2cnc(Nc3ccc(N4CCN(C)CC4)cc3)nc2n1-c1cccc(C(C)(C)O)n1 [MK1775] (first compound 0.4 µM, partner dose 0.02 µM)",95,144,19.6,23.7,111,25.4,102,113,166,156,73.9,47.7,159,166,57.9,79.2,118,59.8,47.5
"Nc1nc(F)nc2c1ncn2[C@@H]1O[C@H](CO)[C@@H](O)[C@@H]1O [fludarabine] + COc1cc2c(Oc3ccc4[nH]c(C)cc4c3F)ncnc2cc1OCCCN1CCCC1 [cediranib] (first compound 0.2 µM, partner dose 0.4 µM)",4080,43.3,50.9,2690,31.2,164,182,109,145,131,110,30.1,105,113,94.7,68.8,28.8,32,44.9
"Nc1nc(F)nc2c1ncn2[C@@H]1O[C@H](CO)[C@@H](O)[C@@H]1O [fludarabine] + OCCn1cc(-c2cnc3nnn(Cc4ccc5ncccc5c4)c3n2)cn1 [PF04217903] (first compound 0.2 µM, partner dose 1 µM)",1930,88.4,106,8270,149,130,331,87.3,108,218,195,59.4,186,112,48.6,53.2,67.6,24,48.8
"CC(C)C[C@H](NC(=O)[C@H](Cc1ccccc1)NC(=O)c1cnccn1)B(O)O [Bortezomib] + O=C(Nc1cccc(Cl)c1)Nc1ncc(CCNc2ncnc3ccsc23)s1 [SNS314] (first compound 0.001 µM, partner dose 0.0008 µM)",379,156,109,65.4,134,2140,106,149,365,166,91.5,157,167,2440,224,195,91.3,79.6,224
"Nc1ncn([C@H]2C[C@H](O)[C@@H](CO)O2)c(=O)n1 [decitabine] + O=C(Nc1cccc(Cl)c1)Nc1ncc(CCNc2ncnc3ccsc23)s1 [SNS314] (first compound 0.1 µM, partner dose 0.0008 µM)",146,79.1,78.1,141,105,128,121,102,141,113,247,164,61.8,94.1,149,178,253,17.7,75.8
